For some of these results: No signal at the amounts used counts as a negative. For some of these results: For at least one entry, the source does not settle the construct or the ends of the probe.
Assays:
VEGF-165 (Homo sapiens) = experiment: filter binding; conditions: purified recombinant protein, single-stranded DNA
[1] = tested on: VEGF-164 (Rattus norvegicus); experiment: filter binding; conditions: P=Nap-dU; NB up to 100 nM; purified recombinant protein; single-stranded DNA
VEGF-121 (Homo sapiens) [2] = experiment: filter binding; conditions: purified recombinant protein, protein details: R&D Systems, single-stranded DNA; for binding result: all P are NapdU, rest DNA, label: 5'-32P, variant of 4867-31_43
VEGF-121 (Homo sapiens) [3] = experiment: competition with a labelled probe; conditions: Nap-dU, 2'-OMe, VEGF isoform not given, purified recombinant protein, protein details: R&D Systems, single-stranded DNA
[4] = biological target: PDGF-BB (platelet-derived growth factor BB) (Homo sapiens) (UniProt P01127); experiment: competition with a labelled probe; conditions: purified recombinant protein, single-stranded DNA
[5] = biological target: PDGF-BB (platelet-derived growth factor BB) (Homo sapiens) (UniProt P01127); experiment: filter binding; conditions: purified recombinant protein, label: 5'-32P, single-stranded DNA
[6] = biological target: PDGF-BB (platelet-derived growth factor BB) (Homo sapiens) (UniProt P01127); experiment: structure; conditions: purified recombinant protein, single-stranded DNA, variant of 4149-8_130

Chains of the proteins cited; added tags and fusions are not shown. Chains listed by the source or under a name are the forms on record and can include a tag or linker. Residues count along the entry.
UniProt P01127, 82-190: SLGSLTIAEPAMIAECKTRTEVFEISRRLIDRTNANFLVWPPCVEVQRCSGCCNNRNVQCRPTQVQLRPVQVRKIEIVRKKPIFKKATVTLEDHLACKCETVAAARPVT
VEGF-165 (Homo sapiens), one chain, as listed by the source: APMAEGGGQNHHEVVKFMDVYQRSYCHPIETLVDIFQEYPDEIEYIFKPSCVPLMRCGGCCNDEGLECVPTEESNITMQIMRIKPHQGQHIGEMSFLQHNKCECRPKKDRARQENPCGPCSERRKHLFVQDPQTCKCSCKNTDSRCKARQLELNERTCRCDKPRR
VEGF-121 (Homo sapiens), one chain, as listed by the source: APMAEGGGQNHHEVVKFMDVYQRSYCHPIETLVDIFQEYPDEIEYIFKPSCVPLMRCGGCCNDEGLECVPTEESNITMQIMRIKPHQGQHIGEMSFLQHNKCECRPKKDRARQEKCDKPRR
VEGF-164 (Rattus norvegicus), one chain, as listed by the source: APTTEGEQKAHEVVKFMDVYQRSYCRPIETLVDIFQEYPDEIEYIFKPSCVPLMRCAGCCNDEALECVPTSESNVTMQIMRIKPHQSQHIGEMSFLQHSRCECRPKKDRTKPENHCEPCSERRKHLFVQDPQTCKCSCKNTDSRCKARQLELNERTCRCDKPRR

Sequence AGCCGTTCAAGTGCTTGTAGGATTT [4867-31_57] has a Kd (VEGF-165 (Homo sapiens); P=Nap-dU, NB up to 100 nM) greater than 100 nM, a Kd [1] greater than 100 nM and a Kd (VEGF-121 (Homo sapiens) [2]; P=Nap-dU, NB up to 100 nM) greater than 100 nM.
AGCCGTTCAAGTGCTTGTAGGATTTA [4867-31_56] showed a Kd (VEGF-165 (Homo sapiens); P=Nap-dU, NB up to 100 nM) greater than 100 nM, a Kd [1] greater than 100 nM and a Kd (VEGF-121 (Homo sapiens) [2]; P=Nap-dU, NB up to 100 nM) greater than 100 nM.
In the case of “AGCCGTTCAAGTGCTTGTAGGATTTAA [4867-31_55]”, the Kd (VEGF-165 (Homo sapiens); P=Nap-dU, NB up to 100 nM) is reported as greater than 100 nM, the Kd [1] is reported as greater than 100 nM and the Kd (VEGF-121 (Homo sapiens) [2]; P=Nap-dU, NB up to 100 nM) is reported as greater than 100 nM.
In the case of “AGCCGTTCAAGTGCTTGTAGGATTTAAA [4867-31_54]”, the Kd (VEGF-165 (Homo sapiens); P=Nap-dU, NB up to 100 nM) is reported as greater than 100 nM, the Kd [1] is reported as greater than 100 nM and the binding result (VEGF-121 (Homo sapiens) [2]; NB) is reported as “no binding”.
With “AGCCGTTCAAGTGCTTGTAGGATTTAAAT [4867-31_53]” the Kd [1] was greater than 100 nM.
CAGCCGTTCAAGTGCTTGTAGGATTT [4867-31_50] gave a Kd (VEGF-165 (Homo sapiens); P=Nap-dU, NB up to 100 nM) greater than 100 nM, a Kd [1] greater than 100 nM and a Kd (VEGF-121 (Homo sapiens) [2]; P=Nap-dU, NB up to 100 nM) greater than 100 nM.
Work on “CAGCCGTTCAAGTGCTTGTAGGATTTA [4867-31_49]” yielded a Kd (VEGF-165 (Homo sapiens); NapdU at P, NB) greater than 100 nM, a Kd [1] greater than 100 nM and a Kd (VEGF-121 (Homo sapiens) [2]; NapdU at P, NB) greater than 100 nM.
“CAGCCGTTCAAGTGCTTGTAGGATTTAA [4867-31_48]” showed a Kd (VEGF-165 (Homo sapiens); NapdU at P, NB) greater than 100 nM and a Kd (VEGF-121 (Homo sapiens) [2]; NapdU at P, NB) greater than 100 nM.
“CAGCCGTTCAAGTGCTTGTAGGATTTAAA [4867-31_47]”: no binding (VEGF-165 (Homo sapiens); all P are NapdU, rest DNA, NB, label: 5'-32P, variant of 4867-31_43); no binding (VEGF-121 (Homo sapiens) [2]; NB).
In the case of “CCGTTCAAGTGCTTGTAGGATTTAAATGGCCGTTCAAGTGCTTGTAGGATTTAAATGG [4867-31_396]”, the Ki (VEGF-121 (Homo sapiens) [3]; head-to-tail dimer, 1 Heg) is reported as 0.05 nM.
With “CCGTTCAAGTGCTTGTAGGATTTAAATGGCCGTTCAAGTGCTTGTAGGATTTAAATGG [4867-31_397]” the Ki (VEGF-121 (Homo sapiens) [3]; head-to-tail dimer, 2 Heg) was 0.043 nM.
In the case of “CCGTTCAAGTGCTTGTAGGATTTAAATGGCCGTTCAAGTGCTTGTAGGATTTAAATGG [4867-31_398]”, the Ki (VEGF-121 (Homo sapiens) [3]; head-to-tail dimer, 3 Heg) is reported as 0.029 nM.
“CCGTTCAAGTGCTTGTAGGATTTAAATGGCCGTTCAAGTGCTTGTAGGATTTAAATGG [4867-31_399]” was tested, and the Ki (VEGF-121 (Homo sapiens) [3]; head-to-tail dimer, 4 Heg) was 0.022 nM.
For “CCGTTCAAGTGCTTGTAGGATTTAAATGGCCGTTCAAGTGCTTGTAGGATTTAAATGG [4867-31_400]”, the Ki (VEGF-121 (Homo sapiens) [3]; head-to-tail dimer, 5 Heg) was 0.014 nM.
In the case of “CCGTTCAAGTGCTTGTAGGATTTAAATGGCCGTTCAAGTGCTTGTAGGATTTAAATGG [4867-31_401]”, the Ki (VEGF-121 (Homo sapiens) [3]; head-to-tail dimer, 6 Heg) is reported as 0.021 nM.
With “CCGTTCAAGTGCTTGTAGGATTTAAATGGGGTAAATTTAGGATGTTCGTGAACTTGCC [4867-31_192D]” the Ki (VEGF-121 (Homo sapiens) [3]; 3'-3' dimer, no Heg) was 0.032 nM.
Sequence “CCGTTCAAGTGCTTGTAGGATTTAAATGGGGTAAATTTAGGATGTTCGTGAACTTGCC [4867-31_402]” has a Ki (VEGF-121 (Homo sapiens) [3]; 3'-3' dimer, 2 Heg) of 0.027 nM.
“CCGTTCAAGTGCTTGTAGGATTTAAATGGGGTAAATTTAGGATGTTCGTGAACTTGCC [4867-31_403]” was tested, and the Ki (VEGF-121 (Homo sapiens) [3]; 3'-3' dimer, 4 Heg) was 0.02 nM.
Work on “CCGTTCAAGTGCTTGTAGGATTTAAATGGGGTAAATTTAGGATGTTCGTGAACTTGCC [4867-31_404]” yielded a Ki (VEGF-121 (Homo sapiens) [3]; 3'-3' dimer, 6 Heg) of 0.033 nM.
With “CGACAGCATGTATGCACATCTCGACAGCATGTATGCACATCT [5169-4_135]” the Ki ([4]; Nap-dU, head-to-tail dimer, 1 Heg) was 0.0093 nM.
Sequence “CGACAGCATGTATGCACATCTCGACAGCATGTATGCACATCT [5169-4_136]” has a Ki ([4]; Nap-dU, head-to-tail dimer, 2 Heg) of 0.0087 nM.
In the case of “CGACAGCATGTATGCACATCTCGACAGCATGTATGCACATCT [5169-4_137]”, the Ki ([4]; Nap-dU, head-to-tail dimer, 3 Heg) is reported as 0.0051 nM.
“CGACAGCATGTATGCACATCTCGACAGCATGTATGCACATCT [5169-4_138]” gave a Ki ([4]; Nap-dU, head-to-tail dimer, 4 Heg) of 0.0049 nM.
“CGACAGCATGTATGCACATCTCGACAGCATGTATGCACATCT [5169-4_139]” was tested, and the Ki ([4]; Nap-dU, head-to-tail dimer, 5 Heg) was 0.0036 nM.
Work on “CGACAGCATGTATGCACATCTCGACAGCATGTATGCACATCT [5169-4_140]” yielded a Ki ([4]; Nap-dU, head-to-tail dimer, 6 Heg) of 0.0036 nM.
“CGACAGCATGTATGCACATCTTCTACACGTATGTACGACAGC [5169-4_26D]” gave a Ki ([4]; Nap-dU, 3'-3' dimer, no Heg) of 0.011 nM.
“CGACAGCATGTATGCACATCTTCTACACGTATGTACGACAGC [5169-4_141]” showed a Ki ([4]; Nap-dU, 3'-3' dimer, 2 Heg) of 0.013 nM.
“CGACAGCATGTATGCACATCTTCTACACGTATGTACGACAGC [5169-4_142]” was tested, and the Ki ([4]; Nap-dU, 3'-3' dimer, 4 Heg) was 0.0055 nM.
“CGACAGCATGTATGCACATCTTCTACACGTATGTACGACAGC [5169-4_143]” gave a Ki ([4]; Nap-dU, 3'-3' dimer, 6 Heg) of 0.002 nM.
Sequence CGCAGCATGTATGCACATCT [5169-4_61] has a Kd ([5]; C3 spacer at 3, NapdU at 9,11,13,19,21, NB up to 100 nM, variant of 5169-4_26) greater than 100 nM.
CTTACGACTACGTTACACGCGTTTATA [4149-8_33] was tested, and the Kd ([5]; all Z are BndU, rest DNA, SB18T, 37 C, variant of 4149-8_2) was greater than 1000 nM.
For TTACGACTACGTTACACGCGTTTATA [4149-8_41], the Kd ([5]; BndU at 1,2,8,12,13,21,22,23,25, rest DNA, SB18T, 37 C, variant of 4149-8_38) was greater than 1000 nM.
“TTACGACTACGTTACACGCGTTTATAGC [4149-8_39]” gave a Kd (VEGF-165 (Homo sapiens); Bn-dU, VEGF, limit value) greater than 1000 nM and a Kd (VEGF-121 (Homo sapiens) [2]; Bn-dU, limit value) greater than 1000 nM.
With TTACGTTACACGCGTTTATAGCG [4149-8_130] the Kd (VEGF-165 (Homo sapiens); Bn-dU, Heg linker, 2'-OMe A3, A11, A21, G24, VEGF, limit value) was greater than 1000 nM.
“TTACGTTACACGCGTTTATAGCG [4149-8_255 (SL4)]”: binds ([6]; iBudU at 8 and other modified dU positions, co-crystal 2.3 A, PDB 4HQX).
“TTACGTTACACGCGTTTATAGCG [4149-8_260 (SL5)]”: binds ([6]; BndU at 1,2,7,8,16,20, PedU at 17, ThdU at 18, 2'-OMe A11,G24, co-crystal 2.2 A, PDB 4HQU, two aptamers per homodimer).
With TTACGTTACACGCGTTTATAGCG [4149-8_273] the Kd (VEGF-165 (Homo sapiens); Bn-dU, Heg linker, 2'-OMe A3, A11, A19, A21, G24, VEGF, limit value) was greater than 1000 nM and the Kd (VEGF-121 (Homo sapiens) [2]; Bn-dU, Heg linker, 2'-OMe A3, A11, A19, A21, G24, limit value) was greater than 1000 nM.
In the case of TTACGTTACCGCGTTTATAGCG [4149-8_459], the Ki ([4]; BndU, NapdU 16, 2'-OMe 3,7,12,13,18,19,21,24, PS 8,9,10,15,16,17, Heg 5, C3 11) is reported as 0.013 nM.
Sequence “TTACGTTACCGCGTTTATAGCGGCGATATTTGCGCCATTGCATT [4149-8_379D]” has a Ki ([4]; Bn-dU, MBn-dU, 2'-OMe, C3, Heg, 3'-3' dimer, no Heg) of 0.011 nM.
For “TTACGTTACCGCGTTTATAGCGGCGATATTTGCGCCATTGCATT [4149-8_445]”, the Ki ([4]; Bn-dU, MBn-dU, 2'-OMe, C3, Heg, 3'-3' dimer, 2 Heg) was 0.0011 nM.
“TTACGTTACCGCGTTTATAGCGGCGATATTTGCGCCATTGCATT [4149-8_446]” gave a Ki ([4]; Bn-dU, MBn-dU, 2'-OMe, C3, Heg, 3'-3' dimer, 4 Heg) of 0.00061 nM.
Work on “TTACGTTACCGCGTTTATAGCGGCGATATTTGCGCCATTGCATT [4149-8_447]” yielded a Ki ([4]; Bn-dU, MBn-dU, 2'-OMe, C3, Heg, 3'-3' dimer, 6 Heg) of 0.00088 nM.
Sequence “TTACGTTACCGCGTTTATAGCGTTACGTTACCGCGTTTATAGCG [4149-8_438]” has a Ki ([4]; Bn-dU, MBn-dU, 2'-OMe, C3, Heg as printed, head-to-tail dimer, no linker, SB18T, 37 C) of 0.0042 nM.
In the case of “TTACGTTACCGCGTTTATAGCGTTACGTTACCGCGTTTATAGCG [4149-8_439]”, the Ki ([4]; Bn-dU, MBn-dU, 2'-OMe, C3, Heg, head-to-tail dimer, 1 Heg) is reported as 0.0035 nM.
“TTACGTTACCGCGTTTATAGCGTTACGTTACCGCGTTTATAGCG [4149-8_440]” was tested, and the Ki ([4]; Bn-dU, MBn-dU, 2'-OMe, C3, Heg, head-to-tail dimer, 2 Heg) was 0.0014 nM.
With “TTACGTTACCGCGTTTATAGCGTTACGTTACCGCGTTTATAGCG [4149-8_441]” the Ki ([4]; Bn-dU, MBn-dU, 2'-OMe, C3, Heg, head-to-tail dimer, 3 Heg) was 0.00078 nM.
Sequence “TTACGTTACCGCGTTTATAGCGTTACGTTACCGCGTTTATAGCG [4149-8_442]” has a Ki ([4]; Bn-dU, MBn-dU, 2'-OMe, C3, Heg, head-to-tail dimer, 4 Heg) of 0.00051 nM.
“TTACGTTACCGCGTTTATAGCGTTACGTTACCGCGTTTATAGCG [4149-8_444]” gave a Ki ([4]; Bn-dU, MBn-dU, 2'-OMe, C3, Heg, head-to-tail dimer, 6 Heg) of 0.00061 nM.

Reference: patent US20160177307
